Data reported in PubChem BioAssay AID1671190 (National Center for Advancing Translational Sciences (NCATS), 2021).
Out of some 580,000 compounds screened, about 6,100 (1.1%) were called active. Inconclusive results, whose numbers are uncertain, are shown with a selection of clear calls. Calls come from the whole dose curve; as a rule, active = well fitted inhibition curve with a large enough effect; inconclusive = small, poorly fitted or top-dose-only effect, or another doubt; inactive = no such curve, though single readings can be large or run the other way. A potency beside an inconclusive call is a rough fit, not a confirmed value.

By UniProt entry, the sequences of proteins in these tests, tags left out. Where a name states a change or a piece, a line headed by the entry shows the natural chain unless it says otherwise.
UniProt P18054: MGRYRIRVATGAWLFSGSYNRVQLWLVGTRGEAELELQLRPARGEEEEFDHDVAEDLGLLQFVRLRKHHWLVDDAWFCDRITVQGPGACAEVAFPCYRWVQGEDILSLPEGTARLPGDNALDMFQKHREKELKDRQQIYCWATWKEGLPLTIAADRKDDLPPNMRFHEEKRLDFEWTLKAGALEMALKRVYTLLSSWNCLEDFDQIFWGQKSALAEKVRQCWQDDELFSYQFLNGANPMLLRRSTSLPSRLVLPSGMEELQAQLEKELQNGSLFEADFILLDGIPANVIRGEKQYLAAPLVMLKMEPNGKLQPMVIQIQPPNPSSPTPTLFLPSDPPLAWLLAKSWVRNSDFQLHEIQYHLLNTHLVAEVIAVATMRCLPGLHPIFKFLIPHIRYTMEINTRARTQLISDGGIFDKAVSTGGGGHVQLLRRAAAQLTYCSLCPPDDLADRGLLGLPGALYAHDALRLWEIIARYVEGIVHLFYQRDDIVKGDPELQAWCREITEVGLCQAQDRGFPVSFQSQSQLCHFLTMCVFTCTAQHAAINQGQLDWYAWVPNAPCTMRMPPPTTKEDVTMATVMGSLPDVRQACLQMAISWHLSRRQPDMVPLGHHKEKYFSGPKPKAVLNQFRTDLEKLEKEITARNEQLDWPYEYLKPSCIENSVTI

Target: Polyunsaturated fatty acid lipoxygenase ALOX12 (Homo sapiens) (UniProt P18054)
Assay: Primary qHTS assay for inhibitors of human arachidonate 12S-lipoxygenase (ALOX12): Round 2
Conditions: purified 12hLO, xylenol orange hydroperoxide absorbance; series mostly up to 108 µM
How it was run: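 Purified human 12hLO (150 nM final) in 25 mM Hepes, 0.01% Triton X-100, pH 7.0 was preincubated 15 min at room temperature with compound. Then 40 uM arachidonic acid was added, 30 min. Hydroperoxide was read by Fe-XO absorbance ratio 573/405 nm.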
Potency is the fitted concentration of half-maximal effect.

Row | Structure (SMILES) | Potency
1 | CCc1c(C)sc(NC(=O)c2cc(-c3ccco3)on2)c1C#N | inconclusive: 44.7 µM [inhibitor, partial curve]
2 | O=C(O)c1cc2c(ccc3ccccc32)o1 | inactive
3 | Cc1cc(OC(=O)c2c(F)cc(F)cc2F)nc(C)n1 | inactive
4 | CN(C)CCN(C(=O)C1CCN(S(=O)(=O)c2cccs2)CC1)c1nc2c(F)cccc2s1 | inconclusive: 44.7 µM [inhibitor, partial curve]
5 | O=C(CC1CCCCC1)N1CCC2(CC1)CC(N(Cc1ccc(F)cc1)C1CC1)CCO2 (stereo not drawn) | inconclusive: 20 µM [inhibitor, full curve, poor fit]
6 | O=S1(=O)CC(N2CCC(Cc3ccccc3)CC2)CN1CCc1ccccc1 (stereo not drawn) | inconclusive: 50.1 µM [inhibitor, partial curve, poor fit]
7 | CCCCCCCc1c(C#N)c(N)[nH]c(=S)c1C#N | inconclusive: 4.47 µM [inhibitor, full curve, poor fit]
8 | O=C(NCCN1CCC(n2c(=O)[nH]c3ccccc32)CC1)c1cccnc1 | inconclusive: 10 µM [inhibitor, partial curve, poor fit]
9 | CCC(=O)N1CCc2nn(Cc3ccccc3)c(=O)n2CC1 | inactive
10 | O=C(O)c1ccc(/C=C2/SC(=S)N(Cc3ccccc3)C2=O)cc1 | inactive
11 | O=C(Nc1ccc(F)cc1)c1ccccc1NC(=O)C1CC=CCC1C(=O)O (stereo not drawn) | inconclusive: 28.2 µM [inhibitor, single point]
12 | CCC(C)(C)C1CCc2c(sc(NC(=O)c3ccoc3C)c2C(N)=O)C1 (stereo not drawn) | inconclusive: 44.7 µM [inhibitor, partial curve, poor fit]
13 | CCn1cc(S(=O)(=O)N2CCCCCCN(C)C(=O)[C@@H]3CCC[C@@H]32)cn1 | inconclusive: 28.2 µM [inhibitor, full curve, poor fit]
14 | Cc1ccccc1CN1CCN(C(=O)c2cc(-c3ccncc3)nc3ccccc23)CC1 | inactive
15 | O=C(NNC(=S)NC(=O)c1ccccc1)c1ccc(O)cc1 | inconclusive: 44.7 µM [inhibitor, partial curve, poor fit]
16 | O=C(N[C@@H]1CN(c2ncccn2)C[C@H]1CO)c1cc2ccccc2[nH]1 | inconclusive: 31.6 µM [inhibitor, full curve]
17 | Cc1ccnn1CCSCC(=O)O | inconclusive: 5.01 µM [inhibitor, full curve, poor fit]
18 | COc1cc(COC(=O)c2cnc(C)cn2)c(OC)cc1Br | inconclusive: 50.1 µM [inhibitor, partial curve, poor fit]

Part of the list above, as a markdown table.

| Row | Structure (SMILES) | Potency |
| --- | --- | --- |
| 3 | Cc1cc(OC(=O)c2c(F)cc(F)cc2F)nc(C)n1 | inactive |
| 4 | CN(C)CCN(C(=O)C1CCN(S(=O)(=O)c2cccs2)CC1)c1nc2c(F)cccc2s1 | inconclusive: 44.7 µM [inhibitor, partial curve] |
| 5 | O=C(CC1CCCCC1)N1CCC2(CC1)CC(N(Cc1ccc(F)cc1)C1CC1)CCO2 (stereo not drawn) | inconclusive: 20 µM [inhibitor, full curve, poor fit] |
